Test results reported in paper PMC3849077.
These are yes or no findings as the source states them, for the method shown. Binding seen in cells or lysates may run through a third protein. Some entries that bind do so weakly or less than the wild type.

Molecular target: Endogenous Synapsin I (mouse brain) (mouse (endogenous in wild-type mouse brain)) (UniProt O88935)
Assay: co-IP; wild-type mouse brain lysate; protein A/G agarose beads with USIPP immune serum (anti-Prickle1 blot) or with anti-Prickle1 antibodies (anti-Synapsin I blot), overnight at 4°C; washes in NET-100 buffer

binding: binds
B1: Endogenous Prickle1 (mouse brain) (protein, UniProt Q3U5C7 1-832)
chain: MPLEMEPKMSKLVFGCQRSSTSDDDSGCALEEYAWVPPGLRPEQIQLYFACLPEEKVPYVNSPGEKHRIKQLLYQLPPHDNEVRYCQSLSEEEKKELQVFSAQRKKEALGRGTIKLLSRAVMHAVCEQCGLQMNGGEVAVFASRAGPGVCWHPSCFVCFTCNELLVDLIYFYQDGKIHCGRHHAELLKPRCSACDEIIFADECTEAEGRHWHMKHFCCLECETVLGGQRYIMKDGRPFCCGCFESLYAEYCETCGEHIGVDHAQMTYDGQHWHATEACFSCAQCKASLLGCPFLPKQGQIYCSKTCSLGEDIHASDSSDSAFQSARSRDSRRSVRMGRSSRSADQCRQSLLLSPALNYKFPGLSGNADDTLSRKLDDVSLASRQGAGFANEEFWKARVEQEASEDPEEWAEHEDYMTQLLLKFGDKNLFQQQSSEVDPRASEHWIPDNMVTNKPEVKPNHQGLASKKYQSDMYWAQSQDGLGDSAYGSHPGPASSRRLQELDLDHGAAGYTHDQSQWYEDSLECLSDLKPEQSIRDSMDSLALSNITGASVDGESKPRPSLYSLQNFEEIEAEDCEKMSNMGTLNSSMLHRSAESLQSLNSGLCPEKILPEEKPAHLPVLRRSKSQSRPQQVKFSDDVIDNGSYDIEIRQPPMSERTRRRAYHFEERGSRPHHHRHRRSRKSRSDNALNLVTERKYSAKDRLRLYTPDNYEKFIQNKSARELQAYMQNANLYSQYAHATSDYALQNPGMNRFLGLCGEDDDSWCSSSTSSSDSEEEGYFLGQPIPQPRPQRFTYYTDDLSSPASALPTPQFTQRTTKSKKKKGHKGKNCIIS
